Test results published in patent US11413329B2, “Cancer cell trap” (BOARD OF REGENTS, THE UNIVERSITY OF TEXAS SYSTEM, priority 2012, dated 2022).
For at least one compound, name, drawing or mass did not settle the structure.

Key:
[1] = tested on: B16F10 melanoma cells; experiment: Murine cancer metastasis model: melanoma cell migration to subcutaneous microsphere implants and lymph nodes; format: in vivo, C57BL/6 mice; details: B16F10 cells intraperitoneal, subcutaneous microsphere implants, 24 h after transplantation, vs control
Experimental: The animal experiments were carried out using C57BL/6 mice (6-10 week old) from Jackson Laboratory (Bar Harbor, Me., USA). This murine cancer metastasis model comprised of two consecutive steps. First, biomaterial microspheres (75 mg/0.5 ml saline/mouse) were implanted in the dorsal subcutaneous space of mice to elicit localized subcutaneous inflammation. Second, after microsphere implantation for different periods of time (6 hours-14 days), cancer cells (5×10^6 cells/0.2 ml/mouse) were transplanted in the peritoneal cavity. 24 h after tumor cell trans-plantation the animals were sacrificed. The vital organs, lymph nodes, the microsphere implants and surrounding tissues were then recovered and frozen in OCT embedding media (Polysciences Inc., Warrington, Pa., USA) at −80° C. The peripheral blood was also collected for further analysis. […]
Immunohistological analyses for CD11b+ inflammatory cells and HMB45+ melanoma cells were carried out to assess the degree of implant-mediated inflammatory responses and melanoma cell migration, respectively. […] FITC-conjugated antibody incubated tissue section was ready for image analysis. […] All tissue section images were taken using a Leica fluorescence microscope (Leica Microsystems GmbH, Wetzlar, Germany) equipped with a Retiga-EXi CCD camera (QImaging, Surrey, BC, Canada) as described earlier. […]

[2] = tested on: CD11b+ inflammatory cells; experiment: Murine cancer metastasis model: inflammatory cell recruitment to subcutaneous microsphere implants; format: in vivo, C57BL/6 mice; details: vs control
Experimental: The animal experiments were carried out using C57BL/6 mice (6-10 week old) from Jackson Laboratory (Bar Harbor, Me., USA). This murine cancer metastasis model comprised of two consecutive steps. First, biomaterial microspheres (75 mg/0.5 ml saline/mouse) were implanted in the dorsal subcutaneous space of mice to elicit localized subcutaneous inflammation. Second, after microsphere implantation for different periods of time (6 hours-14 days), cancer cells (5×10^6 cells/0.2 ml/mouse) were transplanted in the peritoneal cavity. 24 h after tumor cell trans-plantation the animals were sacrificed. The vital organs, lymph nodes, the microsphere implants and surrounding tissues were then recovered and frozen in OCT embedding media (Polysciences Inc., Warrington, Pa., USA) at -80° C. The peripheral blood was also collected for further analysis. Eight μm thick sections were sliced using a Leica Cryostat (CM1850) and placed on poly-L-lysine coated slides for histological and immunohistochemical analyses. […] FITC-conjugated antibody incubated tissue section was ready for image analysis. […] All tissue section images were taken using a Leica fluorescence microscope (Leica Microsystems GmbH, Wetzlar, Germany) equipped with a Retiga-EXi CCD camera (QImaging, Surrey, BC, Canada) as described earlier. […]

C[C@@H]1C[C@H]2[C@@H]3CCC4=CC(=O)C=C[C@]4(C)[C@@]3(F)[C@@H](O)C[C@]2(C)[C@@]1(O)C(=O)CO [dexamethasone]
recruitment of melanoma cells (HMB45+) to the subcutaneous microsphere implantation site [1]: diminished
inflammatory cell (CD11b+) recruitment to the subcutaneous microsphere implantation site [2]: substantially less
